According to publication PMC3849077:
Results are given in words; binding and its absence hold for the method and conditions named. Binding seen in cells or lysates may run through a third protein. Some binding calls cover weakened binding; strength is not graded here.

Molecular target: T1, Endogenous Prickle1 (mouse brain) (mouse (endogenous in wild-type mouse brain)) (UniProt Q3U5C7)
T1 sequence: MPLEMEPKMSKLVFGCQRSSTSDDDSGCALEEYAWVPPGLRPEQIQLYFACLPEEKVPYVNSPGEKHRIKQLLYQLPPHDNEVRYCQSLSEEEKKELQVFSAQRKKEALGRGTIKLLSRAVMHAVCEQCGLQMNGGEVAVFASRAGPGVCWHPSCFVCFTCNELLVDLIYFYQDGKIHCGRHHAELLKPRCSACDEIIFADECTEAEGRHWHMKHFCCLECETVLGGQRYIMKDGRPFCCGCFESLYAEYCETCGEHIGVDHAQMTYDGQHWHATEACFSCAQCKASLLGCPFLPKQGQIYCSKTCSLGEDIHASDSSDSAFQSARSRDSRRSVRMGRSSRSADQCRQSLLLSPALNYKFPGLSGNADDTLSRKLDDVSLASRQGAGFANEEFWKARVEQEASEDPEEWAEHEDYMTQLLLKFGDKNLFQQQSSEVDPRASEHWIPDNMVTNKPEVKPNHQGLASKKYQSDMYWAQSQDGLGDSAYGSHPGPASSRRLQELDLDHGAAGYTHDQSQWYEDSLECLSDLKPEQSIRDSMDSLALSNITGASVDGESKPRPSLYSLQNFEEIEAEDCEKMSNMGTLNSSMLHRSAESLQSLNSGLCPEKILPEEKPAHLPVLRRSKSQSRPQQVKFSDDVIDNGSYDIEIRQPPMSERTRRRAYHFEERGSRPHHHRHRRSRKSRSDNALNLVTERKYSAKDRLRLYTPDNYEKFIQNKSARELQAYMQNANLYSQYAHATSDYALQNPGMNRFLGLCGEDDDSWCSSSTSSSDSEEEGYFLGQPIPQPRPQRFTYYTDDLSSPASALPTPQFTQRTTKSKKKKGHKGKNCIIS
Assay: co-IP; wild-type mouse brain lysate; protein A/G agarose beads with USIPP immune serum (anti-Prickle1 blot) or with anti-Prickle1 antibodies (anti-Synapsin I blot), overnight at 4°C; washes in NET-100 buffer

binding: binds
Substance: Endogenous Synapsin I (mouse brain) (from UniProt O88935-2 1-706)
